Measurements from publication PMC10312975.
Results are given in words; binding and its absence hold for the method and conditions named. Binding seen in cells or lysates may run through a third protein. A yes stands for co-enrichment or nearness to the bait. Other partners may have been found. For some assays here: No binding means not detected with the bait.

The chains behind the UniProt entries cited, without tags or fusion partners.
UniProt Q86VX2: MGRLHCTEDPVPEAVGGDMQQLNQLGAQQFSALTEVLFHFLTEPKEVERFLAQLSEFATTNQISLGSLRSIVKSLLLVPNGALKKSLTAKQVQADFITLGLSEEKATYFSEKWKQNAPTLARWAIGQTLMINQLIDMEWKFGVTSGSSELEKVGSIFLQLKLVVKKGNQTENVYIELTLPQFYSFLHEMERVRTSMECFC
UniProt Q9H0A8: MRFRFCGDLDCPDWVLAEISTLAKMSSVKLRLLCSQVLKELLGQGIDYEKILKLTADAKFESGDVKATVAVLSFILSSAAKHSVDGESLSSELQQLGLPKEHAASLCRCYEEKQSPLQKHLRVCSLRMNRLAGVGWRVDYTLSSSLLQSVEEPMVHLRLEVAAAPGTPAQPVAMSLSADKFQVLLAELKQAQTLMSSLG
UniProt Q7Z4G1: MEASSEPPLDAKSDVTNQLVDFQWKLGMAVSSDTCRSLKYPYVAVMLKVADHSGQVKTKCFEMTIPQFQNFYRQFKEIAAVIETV
UniProt O60826: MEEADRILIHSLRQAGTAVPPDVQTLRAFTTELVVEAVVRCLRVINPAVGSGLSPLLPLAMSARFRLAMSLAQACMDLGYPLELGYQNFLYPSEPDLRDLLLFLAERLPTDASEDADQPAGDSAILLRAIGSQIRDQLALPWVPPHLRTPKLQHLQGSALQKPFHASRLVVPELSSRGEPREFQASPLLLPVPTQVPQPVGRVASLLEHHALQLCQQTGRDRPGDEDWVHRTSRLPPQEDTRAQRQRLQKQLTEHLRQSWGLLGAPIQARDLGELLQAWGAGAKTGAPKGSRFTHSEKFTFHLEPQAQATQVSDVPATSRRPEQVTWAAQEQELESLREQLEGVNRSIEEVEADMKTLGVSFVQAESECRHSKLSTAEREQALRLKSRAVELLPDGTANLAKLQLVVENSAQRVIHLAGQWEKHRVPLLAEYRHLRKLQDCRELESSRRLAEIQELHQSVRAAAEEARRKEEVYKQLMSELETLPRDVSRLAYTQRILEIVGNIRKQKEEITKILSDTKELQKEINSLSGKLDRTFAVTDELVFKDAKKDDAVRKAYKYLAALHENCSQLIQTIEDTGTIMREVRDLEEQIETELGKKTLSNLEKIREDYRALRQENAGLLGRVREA
UniProt Q9Y6G5: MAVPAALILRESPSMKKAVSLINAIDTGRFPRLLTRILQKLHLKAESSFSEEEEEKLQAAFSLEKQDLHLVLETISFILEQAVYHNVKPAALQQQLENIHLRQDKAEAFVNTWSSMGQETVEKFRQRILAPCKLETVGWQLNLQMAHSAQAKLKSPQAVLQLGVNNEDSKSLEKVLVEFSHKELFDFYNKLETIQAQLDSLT
UniProt Q567U6: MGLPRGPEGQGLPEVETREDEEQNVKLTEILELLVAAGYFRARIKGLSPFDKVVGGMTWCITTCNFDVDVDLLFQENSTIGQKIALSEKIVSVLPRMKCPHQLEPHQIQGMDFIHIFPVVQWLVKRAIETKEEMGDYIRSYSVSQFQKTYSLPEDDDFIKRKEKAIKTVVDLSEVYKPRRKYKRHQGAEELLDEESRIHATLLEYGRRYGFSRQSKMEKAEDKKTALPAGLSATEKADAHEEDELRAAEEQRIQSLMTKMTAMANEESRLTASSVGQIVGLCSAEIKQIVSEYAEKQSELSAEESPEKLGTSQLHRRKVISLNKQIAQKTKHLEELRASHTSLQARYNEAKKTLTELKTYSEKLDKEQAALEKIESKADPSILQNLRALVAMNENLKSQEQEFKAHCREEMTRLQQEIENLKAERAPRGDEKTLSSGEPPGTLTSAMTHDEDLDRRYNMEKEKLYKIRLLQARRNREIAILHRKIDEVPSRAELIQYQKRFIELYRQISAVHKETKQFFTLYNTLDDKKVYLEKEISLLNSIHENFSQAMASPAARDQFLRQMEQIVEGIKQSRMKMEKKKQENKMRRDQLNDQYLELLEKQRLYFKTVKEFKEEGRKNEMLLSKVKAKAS
UniProt Q9GZQ3: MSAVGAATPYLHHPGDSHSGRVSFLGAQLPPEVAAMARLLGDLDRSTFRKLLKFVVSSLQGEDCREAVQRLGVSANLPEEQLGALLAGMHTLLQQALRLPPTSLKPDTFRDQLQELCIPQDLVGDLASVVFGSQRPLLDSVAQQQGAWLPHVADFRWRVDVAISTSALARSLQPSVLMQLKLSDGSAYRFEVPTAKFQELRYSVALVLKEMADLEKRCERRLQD
UniProt Q9NX08: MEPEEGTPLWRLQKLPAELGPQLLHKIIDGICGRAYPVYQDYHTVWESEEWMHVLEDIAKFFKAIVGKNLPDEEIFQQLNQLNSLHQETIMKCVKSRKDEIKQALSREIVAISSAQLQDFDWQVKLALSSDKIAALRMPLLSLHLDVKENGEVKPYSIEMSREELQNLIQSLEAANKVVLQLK

Legend:
[1] = biological target: HA-tagged COMMD1, stably expressed in COMMD1-deficient HeLa cells (human) (UniProt Q8N668); experiment: affinity purification with mass spectrometry; HA immunoprecipitation from HeLa knockout cells rescued with HA-COMMD1 or HA-VPS26C, elution with HA peptide, blue native gel, bands at 720, 480 and 240 kDa analysed with iBAQ quantification
[2] = biological target: HA-tagged VPS26C, stably expressed in VPS26C-deficient HeLa cells (human) (UniProt O14972); experiment: as above
[3] = biological target: HA-tagged VPS35L G325E, stably expressed in VPS35L knockout Huh-7 cells (human) (UniProt Q7Z3J2); experiment: affinity purification with mass spectrometry; HA resin on Triton X-100 lysates of stable Huh-7 lines, elution with HA peptide, LC-MS/MS, compared with empty vector, triplicate samples
[4] = biological target: HA-tagged VPS35L G902E, stably expressed in VPS35L knockout Huh-7 cells (human) (UniProt Q7Z3J2); experiment: as above
[5] = biological target: HA-tagged VPS35L S829E, stably expressed in VPS35L knockout Huh-7 cells (human) (UniProt Q7Z3J2); experiment: as above
[6] = biological target: HA-tagged VPS35L W6D, stably expressed in VPS35L knockout Huh-7 cells (human) (UniProt Q7Z3J2); experiment: as above
[7] = biological target: HA-tagged VPS35L wild type, stably expressed in VPS35L knockout Huh-7 cells (human) (UniProt Q7Z3J2); experiment: as above

binding [1]	also measured	Substance
binds	–	COMMD7 (endogenous) (from UniProt Q86VX2 1-200)
binds	–	COMMD4 (endogenous) (from UniProt Q9H0A8 1-199)
binds	–	COMMD6 (endogenous) (from UniProt Q7Z4G1 1-85)
binds	–	VPS26C (endogenous) (from UniProt O14972 1-297) (other; other documents disagree on this pair)
–	binding [2]: binds	COMMD9 (endogenous) (from UniProt Q9P000 1-198)
–	binding [3]: no binding; binding [4]: binds; binding [5]: binds; binding [6]: binds; binding [7]: binds	VPS26C (endogenous) (from UniProt O14972 1-297)
binds	–	CCDC22 (endogenous) (from UniProt O60826 1-627)
binds	–	COMMD10 (endogenous) (from UniProt Q9Y6G5 1-202)
binds	binding [2]: binds	DENND10 (endogenous) (from UniProt Q8TCE6 1-357)
binds	–	CCDC93 (endogenous) (from UniProt Q567U6 1-631)
binds	–	COMMD5 (endogenous) (from UniProt Q9GZQ3 1-224)
binds	–	COMMD8 (endogenous) (from UniProt Q9NX08 1-183)
